In patent publication US6034215A, “3-amino-2-oxo-1-piperidnercetic derivatives as enzyme inhibitors” (Corvas International, Inc., priority 1997, dated 2000):
At least one compound was matched to its structure with a doubt left.

Chains of the proteins cited; added tags and fusions are not shown. Residues count along the entry.
UniProt P00747, 97-580 limits assumed: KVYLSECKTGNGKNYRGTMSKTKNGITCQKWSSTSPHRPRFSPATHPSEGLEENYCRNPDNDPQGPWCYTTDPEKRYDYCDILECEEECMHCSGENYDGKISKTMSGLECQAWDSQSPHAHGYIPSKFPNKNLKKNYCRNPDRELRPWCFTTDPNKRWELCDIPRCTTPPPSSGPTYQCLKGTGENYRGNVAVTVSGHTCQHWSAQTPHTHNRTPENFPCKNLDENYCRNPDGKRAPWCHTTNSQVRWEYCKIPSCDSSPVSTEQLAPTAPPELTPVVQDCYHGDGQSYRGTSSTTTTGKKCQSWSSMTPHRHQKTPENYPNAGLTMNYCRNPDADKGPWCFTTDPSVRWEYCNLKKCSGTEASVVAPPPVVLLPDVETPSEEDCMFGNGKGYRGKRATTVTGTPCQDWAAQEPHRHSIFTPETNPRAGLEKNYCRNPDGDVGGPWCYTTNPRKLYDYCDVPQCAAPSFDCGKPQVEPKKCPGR
UniProt P00747, 581-810 limits assumed: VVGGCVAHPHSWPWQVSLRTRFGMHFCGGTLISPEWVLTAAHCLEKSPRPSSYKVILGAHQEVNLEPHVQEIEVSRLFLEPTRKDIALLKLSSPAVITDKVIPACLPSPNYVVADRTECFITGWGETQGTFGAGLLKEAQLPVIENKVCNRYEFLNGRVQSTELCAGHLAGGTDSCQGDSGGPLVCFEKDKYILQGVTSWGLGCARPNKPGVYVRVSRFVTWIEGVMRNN
UniProt P00750, 36-562: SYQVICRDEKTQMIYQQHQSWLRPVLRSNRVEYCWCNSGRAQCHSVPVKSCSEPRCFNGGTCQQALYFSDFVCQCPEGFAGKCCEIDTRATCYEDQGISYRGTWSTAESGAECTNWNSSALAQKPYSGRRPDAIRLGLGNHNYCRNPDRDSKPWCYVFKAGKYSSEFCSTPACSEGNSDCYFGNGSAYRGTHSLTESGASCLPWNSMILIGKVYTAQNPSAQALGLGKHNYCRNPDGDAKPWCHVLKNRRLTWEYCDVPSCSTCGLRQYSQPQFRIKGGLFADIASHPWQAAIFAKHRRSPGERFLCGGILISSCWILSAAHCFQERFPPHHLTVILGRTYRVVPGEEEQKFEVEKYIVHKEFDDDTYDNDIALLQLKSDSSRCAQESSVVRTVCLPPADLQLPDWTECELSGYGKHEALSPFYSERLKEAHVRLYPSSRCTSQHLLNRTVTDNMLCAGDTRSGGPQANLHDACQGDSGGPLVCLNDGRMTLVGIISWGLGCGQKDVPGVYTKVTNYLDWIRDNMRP
UniProt P04070, 43-197 limits assumed: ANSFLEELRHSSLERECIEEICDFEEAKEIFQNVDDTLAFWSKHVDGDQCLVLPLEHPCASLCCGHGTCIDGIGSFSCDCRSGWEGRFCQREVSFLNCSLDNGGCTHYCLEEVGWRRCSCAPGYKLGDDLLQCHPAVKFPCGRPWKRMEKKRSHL
UniProt P04070, 212-461 limits assumed: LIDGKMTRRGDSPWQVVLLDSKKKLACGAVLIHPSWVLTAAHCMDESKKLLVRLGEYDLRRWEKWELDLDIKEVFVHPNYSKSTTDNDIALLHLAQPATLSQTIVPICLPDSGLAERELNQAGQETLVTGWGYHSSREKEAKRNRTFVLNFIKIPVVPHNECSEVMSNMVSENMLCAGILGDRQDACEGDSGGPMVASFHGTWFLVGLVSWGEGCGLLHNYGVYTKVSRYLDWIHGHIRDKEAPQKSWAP

What was measured:
Format in all cases: biochemical
Conditions in all cases: Table 2; maximal concentration assayed 2500 nM
[1] = biological target: bovine pancreatic a-chymotrypsin (Bos taurus, UniProt P00766); assay: In vitro enzyme assay for specificity: chymotrypsin, IC50
human plasmin = human plasmin (Homo sapiens, UniProt P00747); assay: In vitro enzyme assay for specificity: plasmin assay, IC50
Procedure: Plasmin catalytic activity was determined using the chromogenic substrate, S-2251 (D-valyl-L-leucyl-L-lysine-p-nitroanilide), which was obtained from Kabi Diagnostica.

Human rt-PA (Activase®) = biological target: T1, Human rt-PA (Activase®) (Homo sapiens, UniProt P00750); assay: In vitro enzyme assay for specificity: recombinant tissue plasminogen activator, IC50
T1 construct: purchased Genentech Inc. Activase®

human aPC = biological target: T2, human aPC (Homo sapiens, UniProt P04070); assay: In vitro enzyme assay for specificity: activated protein C, IC50
T2 construct: purchased Hematologic Technologies, Inc
Procedure: aPC catalytic activity was determined using the chromogenic substrate, Pefachrome PC (delta-carbobenzloxy-D-lysine -L-prolyl-L-arginine-p-nitroanilide), obtained from Pentapharm Ltd.). […] Purified human aPC was obtained from Hematologic Technologies, Inc. The enzyme was diluted into HBSA prior to assay in which the final concentration was 1.0 nM.

Measured: IC50

NC(N)=NCCC[C@@H](C=O)NC(=O)CN1CCCCC(NS(=O)(=O)Cc2ccccc2)C1=O (stereo partly drawn) [Example 34, N-(BnSO2 -norLeu(cyclo)-Gly)-L-argininal]
> 2500 nM: all assays above

NC(N)=NCCC[C@@H](C=O)NC(=O)CN1CCCC(NS(=O)(=O)Cc2ccccc2)C1=O (stereo partly drawn) [Example 8, N-benzylsulfonyl-norVal(cyclo)-Gly-L-argininal]
> 2500 nM: all assays above

NC(N)=NCCC[C@@H](C=O)NC(=O)CN1CCCCC(NS(=O)(=O)CC2CCCCC2)C1=O (stereo partly drawn) [Example 36(i), N-(cyclohexylmethyl-SO2 -norLeu(cyclo)-Gly)-L-argininal]
> 2500 nM: all assays above
